## Percent effect of library compounds

A: 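Whole-cell growth test on Mycobacterium tuberculosis, read after 4 days in a medium based on cholesterol and the lipid DPPC; the read-out is not stated. Tested at 50 µM. Direction is inferred from retests: higher values go with more growth inhibition. Of about 69,000 compounds tested this way, about 370 (0.54%) reached 50% or more in at least one test.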
B: 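Phenotypic screen: M. tuberculosis growth, glucose 7H9 medium, 3 days; the read-out is not stated. Tested at 50 µM. The record gives no direction; compounds that gave an IC50 in retests scored well above the rest, so higher reads as more growth inhibition. About 69,000 compounds were tested under these conditions; 1.1% (about 760) showed 50% or more at least once.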

Each number is a percent effect as filed.
The controls that fix the scale are not given in the record; negative values are as filed.
The compounds are a random part of those screened.
Two or more numbers in one place are separate tests of the same structure; such repeats can differ widely.

{"structure": "CC1CCN(S(=O)(=O)NCCCn2cncn2)CC1", "A": 4.953, "B": 20.49}
{"structure": "Cc1cnc(CCNC(=O)C2CN(C(=O)Cc3ccc(F)cc3)C2)s1", "A": "-18.57 and 4.76", "B": -16.93}
{"structure": "Cc1nc(N2CCCC2)nc2c1CCN(C(=O)CC1CC1)CC2", "A": 3.235, "B": 6.161}
{"structure": "CN(Cc1cccnc1)CC1CC12CCCC2", "stereo": "stereo not drawn", "A": 0.3594, "B": 1.054}
{"structure": "COc1cccc(CN2CCCC(c3nn(C)c4nccnc34)C2)c1.Cl", "stereo": "stereo not drawn", "A": 8.353, "B": 31.57}
{"structure": "CCS(=O)(=O)N1CCC2(CN(c3ccsc3)C(=O)CN2C)C1.O=C(O)C(F)(F)F", "stereo": "stereo not drawn", "A": -8.659, "B": -33}
{"structure": "CCc1ccccc1C(=O)N1CCN(S(C)(=O)=O)[C@@H](C)C1", "A": -4.185, "B": "-12.79 and -0.8291"}
{"structure": "CCc1nnc2n1CCN(C(=O)C(C)Oc1cccc(C#N)c1)C2", "stereo": "stereo not drawn", "A": -31.21, "B": -7.426}
{"structure": "CSc1nccc(N2CCC(=O)N(CC3CC3)C(C(C)C)C2)n1", "stereo": "stereo not drawn", "A": "0.3945 and -18.75", "B": -8.878}
{"structure": "Cc1nc2c(c(C)c1CC(=O)Nc1ccc(Cl)cc1)c(=O)[nH]n2C", "A": 0.2824, "B": -0.4315}
{"structure": "CCc1c(C)nn(CCN2CC3(CCOC3)CCC2=O)c1C", "stereo": "stereo not drawn", "A": 10.39, "B": "-9.241 and 2.614"}
{"structure": "O=C(CC1CCCO1)NCc1ccc(Br)cc1F", "stereo": "stereo not drawn", "A": 3.708, "B": "20.87 and 24.4"}
{"structure": "c1cc(CN2CCCN(c3ccc4cc[nH]c4n3)CC2)ccn1", "A": -26.44, "B": -12.81}
{"structure": "O=C(O)c1csc(S(=O)(=O)N2CCCc3cccc(OC(F)F)c32)c1", "A": 17.78, "B": 37.87}
{"structure": "Cc1nc(C2CCN2c2ncccn2)cc(N(C)C)n1", "stereo": "stereo not drawn", "A": 3.778, "B": 12.33}
{"structure": "O=C(NC1(c2nnn(CC3CCCO3)n2)CCCC1)c1ccccc1", "stereo": "stereo not drawn", "A": 2.655, "B": -11.81}
{"structure": "[H][C@@]12C[C@H](C(=O)Nc3cnccn3)CN(c3ncc(F)cn3)[C@]1([H])CCO2", "A": 12.31, "B": "3.788 and -2.596"}
{"structure": "Cc1nnc2n1CC(CNc1ncnc3ccccc13)CC2", "stereo": "stereo not drawn", "A": 3.24, "B": -14.64}
{"structure": "CCC[C@@H]1CN(Cc2ccccc2SC)C[C@H]1NC(C)=O", "A": 6.082, "B": 7.55}
{"structure": "O=c1[nH]c2c(-c3ccccn3)nsc2c(=O)n1CC1CCCO1", "stereo": "stereo not drawn", "A": 7.704, "B": 3.281}
{"structure": "CC(C)Nc1ncccc1C(=O)NCc1ccnn1C", "A": -5.467, "B": -6.045}
{"structure": "Cc1nc(C(=O)N2CCCC2c2noc(C3CC3)n2)c[nH]1", "stereo": "stereo not drawn", "A": 18.05, "B": 8.884}
{"structure": "Cc1cnn(C2CCCN(C(=O)Cc3ccc(C)s3)C2)c1", "stereo": "stereo not drawn", "A": -11.29, "B": "-2.341 and 26.11"}
{"structure": "COCC(C)(CCO)NC(=O)Nc1c(F)cccc1Br", "stereo": "stereo not drawn", "A": -32.82, "B": 8.645}
{"structure": "CCN(CC)CCNC(=O)c1nn(CC)cc1Cl", "A": -17.42, "B": 3.762}
{"structure": "CC(C)C[C@H](N)C(=O)N1CC2(CCNCC2)c2cc(Cl)ccc21.Cl.Cl", "A": "9.748 and 12.46", "B": 23.39}
{"structure": "Cc1occc1C(=O)N1CCC2(CCN(C(=O)c3cccnc3)C2)CC1.O=C(O)C(F)(F)F", "A": -6.697, "B": -19.64}
{"structure": "Cc1nc(C)c(C(=O)NCCNC(=O)Cc2cccc(F)c2)s1", "A": -27.66, "B": 5.38}
{"structure": "[H][C@@]12CCN(S(=O)(=O)C3CC3)[C@]1([H])CC[C@@H](c1nnc(C)o1)O2", "A": -26.69, "B": -15.85}
{"structure": "COc1cc(C(=O)NS(=O)(=O)c2ccc(C#N)cc2)ccc1C", "A": -14.05, "B": -16.12}
{"structure": "COc1cc(OCC(=O)NCCc2ccccc2)cc(OC)c1OC", "A": 1.281, "B": "13.61 and 0.3428"}
{"structure": "CN(C(=O)Cn1nc(-c2ccc(Cl)cc2)ccc1=O)C1CCS(=O)(=O)C1", "stereo": "stereo not drawn", "A": -3.223, "B": -8.091}
{"structure": "COc1ccc(-c2n[nH]c(C)c2CC(=O)NCC2CCCO2)cc1", "stereo": "stereo not drawn", "A": -22.79, "B": -47.23}
{"structure": "CCCc1n[nH]c(C2CN(C(=O)CCn3nc(C)cc3C)CCO2)n1", "stereo": "stereo not drawn", "A": 4.137, "B": 16.49}
{"structure": "Cc1cc(NC(=O)N2CCOCC2)nn1-c1ccccc1Cl", "A": 4.796, "B": "-0.7742 and 13.13"}
{"structure": "COc1ccc(-c2nnsc2C(=O)N2CCSCC2)cc1", "A": 12.96, "B": "13.44 and 4.923"}
{"structure": "COCC(=O)Nc1ccc(Sc2nncn2C)c(Cl)c1", "A": -13.27, "B": -9.692}
{"structure": "O=C(O)C(F)(F)F.O=C1COC2(CCN(Cc3ccco3)CC2)CN1CCn1cccn1", "A": 7.389, "B": "-3.694 and 4.717"}
{"structure": "Cc1nc(O)c2nnn(C[C@H]3CCCN3C(=O)c3cccc(F)c3)c2n1", "A": -0.06557, "B": 2.209}

For reference, 4 entries once more:

structure,A,B
Cc1nc(O)c2nnn(C[C@H]3CCCN3C(=O)c3cccc(F)c3)c2n1,-0.06557,2.209
CCc1c(C)nn(CCN2CC3(CCOC3)CCC2=O)c1C (stereo not drawn),10.39,-9.241 and 2.614
CCS(=O)(=O)N1CCC2(CN(c3ccsc3)C(=O)CN2C)C1.O=C(O)C(F)(F)F (stereo not drawn),-8.659,-33
COCC(=O)Nc1ccc(Sc2nncn2C)c(Cl)c1,-13.27,-9.692

The values are deposited in ChEMBL (CHEMBL3988442, “University of Dundee, Small-Polar-MMV Screening Library” (2021)).